No constants are given. Whether binding was seen depends on the method and setting. In cells and extracts the contact can be indirect. A result given as binding can be weak or reduced; the word gives no strength. Sequences can lack the tags named with a protein.

Results on five molecules are retold here after PMC6453868.

In test [1] the target is T1, SLC35A4 (putative nucleotide sugar transporter), mVenus- or mCherry-tagged FRET construct (UniProt Q96G79).
T1 sequence: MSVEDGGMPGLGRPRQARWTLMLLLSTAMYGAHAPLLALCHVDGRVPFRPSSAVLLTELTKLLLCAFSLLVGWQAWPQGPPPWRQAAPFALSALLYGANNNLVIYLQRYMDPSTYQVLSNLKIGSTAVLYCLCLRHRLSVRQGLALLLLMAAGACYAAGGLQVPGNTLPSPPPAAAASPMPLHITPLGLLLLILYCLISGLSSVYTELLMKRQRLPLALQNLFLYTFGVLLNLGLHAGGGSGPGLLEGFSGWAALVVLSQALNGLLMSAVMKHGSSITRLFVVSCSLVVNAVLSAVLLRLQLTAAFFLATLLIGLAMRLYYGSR
The test is described as follows: FRET or BRET; A4-mVenus with mCherry-tagged transporters co-transfected in COS-7 cells, fixed, Operetta; negative control MGAT2-mVenus and mCherry-AE2.

Test [2] concerns the target SLC35A4/SLC35A2 transporter pair (BiFC complex) of the BiFC-based FRET assay. The test is described as follows: split reporter + FRET or BRET; BiFC-based FRET: COS-7 cells triple-transfected with VN, VC and mCherry- or mCerulean-tagged constructs, fixed, Operetta; negative controls with one non-interacting construct (B4GALT1, AE2).

For the molecule “mCherry-tagged SLC35A2 (UDP-Gal transporter, Golgi splice variant)”, in test [1], the binding result is “binds”.

B1: MGAT1, mCherry- or mCerulean-tagged construct of the BiFC-based FRET assay (tag on the cytosolic surface) (enzyme, UniProt P26572 1-445)
chain: MLKKQSAGLVLWGAILFVAWNALLLLFFWTRPAPGRPPSVSALDGDPASLTREVIRLAQDAEVELERQRGLLQQIGDALSSQRGRVPTAAPPAQPRVPVTPAPAVIPILVIACDRSTVRRCLDKLLHYRPSAELFPIIVSQDCGHEETAQAIASYGSAVTHIRQPDLSSIAVPPDHRKFQGYYKIARHYRWALGQVFRQFRFPAAVVVEDDLEVAPDFFEYFRATYPLLKADPSLWCVSAWNDNGKEQMVDASRPELLYRTDFFPGLGWLLLAELWAELEPKWPKAFWDDWMRRPEQRQGRACIRPEISRTMTFGRKGVSHGQFFDQHLKFIKLNQQFVHFTQLDLSYLQREAYDRDFLARVYGAPQLQVEKVRTNDRKELGEVRVQYTGRDSFKAFAKALGVMDDLKSGVPRAGYRGIVTFQFRGRRVHLAPPLTWEGYDPSWN
Turning to B1, the binding entry in test [2] is listed as “binds”.

B2: MGAT4B, mCherry- or mCerulean-tagged construct of the BiFC-based FRET assay (tag on the cytosolic surface) (enzyme, UniProt Q9UQ53 1-548)
chain: MRLRNGTFLTLLLFCLCAFLSLSWYAALSGQKGDVVDVYQREFLALRDRLHAAEQESLKRSKELNLVLDEIKRAVSERQALRDGDGNRTWGRLTEDPRLKPWNGSHRHVLHLPTVFHHLPHLLAKESSLQPAVRVGQGRTGVSVVMGIPSVRREVHSYLTDTLHSLISELSPQEKEDSVIVVLIAETDSQYTSAVTENIKALFPTEIHSGLLEVISPSPHFYPDFSRLRESFGDPKERVRWRTKQNLDYCFLMMYAQSKGIYYVQLEDDIVAKPNYLSTMKNFALQQPSEDWMILEFSQLGFIGKMFKSLDLSLIVEFILMFYRDKPIDWLLDHILWVKVCNPEKDAKHCDRQKANLRIRFKPSLFQHVGTHSSLAGKIQKLKDKDFGKQALRKEHVNPPAEVSTSLKTYQHFTLEKAYLREDFFWAFTPAAGDFIRFRFFQPLRLERFFFRSGNIEHPEDKLFNTSVEVLPFDNPQSDKEALQEGRTATLRYPRSPDGYLQIGSFYKGVAEGEVDPAFGPLEALRLSIQTDSPVWVILSEIFLKKAD
For the molecule B2, the binding entry in test [2] is given as “no binding”.

B3: MGAT5, mCherry- or mCerulean-tagged construct of the BiFC-based FRET assay (tag on the cytosolic surface) (enzyme, UniProt Q09328 1-741)
chain: MALFTPWKLSSQKLGFFLVTFGFIWGMMLLHFTIQQRTQPESSSMLREQILDLSKRYIKALAEENRNVVDGPYAGVMTAYDLKKTLAVLLDNILQRIGKLESKVDNLVVNGTGTNSTNSTTAVPSLVALEKINVADIINGAQEKCVLPPMDGYPHCEGKIKWMKDMWRSDPCYADYGVDGSTCSFFIYLSEVENWCPHLPWRAKNPYEEADHNSLAEIRTDFNILYSMMKKHEEFRWMRLRIRRMADAWIQAIKSLAEKQNLEKRKRKKVLVHLGLLTKESGFKIAETAFSGGPLGELVQWSDLITSLYLLGHDIRISASLAELKEIMKKVVGNRSGCPTVGDRIVELIYIDIVGLAQFKKTLGPSWVHYQCMLRVLDSFGTEPEFNHANYAQSKGHKTPWGKWNLNPQQFYTMFPHTPDNSFLGFVVEQHLNSSDIHHINEIKRQNQSLVYGKVDSFWKNKKIYLDIIHTYMEVHATVYGSSTKNIPSYVKNHGILSGRDLQFLLRETKLFVGLGFPYEGPAPLEAIANGCAFLNPKFNPPKSSKNTDFFIGKPTLRELTSQHPYAEVFIGRPHVWTVDLNNQEEVEDAVKAILNQKIEPYMPYEFTCEGMLQRINAFIEKQDFCHGQVMWPPLSALQVKLAEPGQSCKQVCQESQLICEPSFFQHLNKDKDMLKYKVTCQSSELAKDILVPSFDPKNKHCVFQGDLLLFSCAGAHPRHQRVCPCRDFIKGQVALCKDCL
As to B3, in test [2], the binding result is given as “no binding”.

B4: MGAT2, mCherry- or mCerulean-tagged construct of the BiFC-based FRET assay (tag on the cytosolic surface) (enzyme, UniProt Q10469 1-447)
chain: MRFRIYKRKVLILTLVVAACGFVLWSSNGRQRKNEALAPPLLDAEPARGAGGRGGDHPSVAVGIRRVSNVSAASLVPAVPQPEADNLTLRYRSLVYQLNFDQTLRNVDKAGTWAPRELVLVVQVHNRPEYLRLLLDSLRKAQGIDNVLVIFSHDFWSTEINQLIAGVNFCPVLQVFFPFSIQLYPNEFPGSDPRDCPRDLPKNAALKLGCINAEYPDSFGHYREAKFSQTKHHWWWKLHFVWERVKILRDYAGLILFLEEDHYLAPDFYHVFKKMWKLKQQECPECDVLSLGTYSASRSFYGMADKVDVKTWKSTEHNMGLALTRNAYQKLIECTDTFCTYDDYNWDWTLQYLTVSCLPKFWKVLVPQIPRIFHAGDCGMHHKKTCRPSTQSAQIESLLNNNKQYMFPETLTISEKFTVVAISPPRKNGGWGDIRDHELCKSYRRLQ
Take B4: in test [2], the binding entry is on record as “binds”.
